Data published in the supplement of paper PMC9226226.
“And” between values parts separate entries of the source, which are not always exact repeats. Identical values can stand only once. Some of the results follow. Some well-known active drugs show little effect in this data set, so a weak value is uncertain.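 The cells are human mesenchymal stem cells that lack the Werner syndrome gene and age prematurely. Growth was tracked by automated live-cell imaging in three biological repeats, and the twenty drugs that most raised growth over vehicle were taken forward, with no fixed cutoff stated.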

Tested on: Werner syndrome hMSCs (WRN-/-)
Assay: relative cell density (fold change vs vehicle control); higher = more proliferation (geroprotective)
Details: concentration (umol/L): 1, 6 days

Row | Structure (SMILES) | relative cell density (vehicle: DMSO) | relative cell density (vehicle: Water)
1 | NC(=O)c1ccc(I)c([N+](=O)[O-])c1 | 1.13 | 
2 | N/N=c1\[nH][nH]/c(=N\N)c2ccccc12 | 1.26 | 
3 | CN/C(=N\CCSCc1nc[nH]c1C)NC#N | 1.09 | 
4 | C/C(=C\C(=O)OCCCCCCCCC(=O)O)C[C@@H]1OC[C@H](C[C@@H]2O[C@H]2[C@@H](C)[C@H](C)O)[C@@H](O)[C@H]1O | 0.401 and 1.18 | 
5 | CS(=O)(=O)c1cccc(C[C@H](NC(=O)c2c(Cl)cc3c(c2Cl)CCN(C(=O)c2ccc4ccoc4c2)C3)C(=O)O)c1 | 1.04 | 
6 | Oc1cccc(O)c1 | 1.27 | 
7 | C[C@@H](O[C@H]1OCCN(Cc2n[nH]c(=O)[nH]2)[C@H]1c1ccc(F)cc1)c1cc(C(F)(F)F)cc(C(F)(F)F)c1 | 1.25 | 
8 | CCCCN(CCCC)CC(O)c1cc(Cl)cc2c1-c1ccc(Cl)cc1/C2=C/c1ccc(Cl)cc1 (centres undefined) | 0.775 | 
9 | Cc1cn(-c2cc(NC(=O)c3ccc(C)c(Nc4nccc(-c5cccnc5)n4)c3)cc(C(F)(F)F)c2)cn1 | 1.09 | 
10 | Cc1cc(O)cc(C)c1Cl | 0.692 | 
11 | COc1nccnc1NS(=O)(=O)c1ccc(N)cc1 | 1.33 | 
12 | CC(=O)c1c(C)c2cnc(Nc3ccc(N4CCNCC4)cn3)nc2n(C2CCCC2)c1=O |  | 0.621 and 1.03
13 | CC(C)OC(=O)C(C)(C)Oc1ccc(C(=O)c2ccc(Cl)cc2)cc1 | 1.15 | 
14 | OCCOc1ccc(/C(=C(/CCCl)c2ccccc2)c2ccccc2)cc1 | 0.786 | 
15 | Cc1ccc(NC(=O)C2(c3ccc4c(c3)OC(F)(F)O4)CC2)nc1-c1cccc(C(=O)O)c1 | 1.05 | 
16 | CNC(=O)c1ccc(Nc2ncc(C(F)(F)F)c(NCc3nccnc3N(C)S(C)(=O)=O)n2)cc1 |  | 0.14
17 | Cc1cc2c(s1)Nc1ccccc1N=C2N1CCN(C)CC1 | 1.38 | 
18 | O=S(=O)(O)Oc1ccc(C(c2ccc(OS(=O)(=O)O)cc2)c2ccccn2)cc1 | 0.779 | 
19 | CSc1nc2cc(Cl)c(Oc3cccc(Cl)c3Cl)cc2[nH]1 | 0.52 | 
20 | NC(=O)c1cnccn1 | 1.03 | 
21 | CO[C@@H]1[C@H](OC(=O)/C=C/C=C/C=C/C=C/C(=O)O)CC[C@]2(CO2)[C@H]1[C@@]1(C)O[C@@H]1CC=C(C)C | 0.644 | 

Row | Structure (SMILES) | relative cell density (vehicle: DMSO) | relative cell density (vehicle: Water)
22 | Cn1cnc2c(F)c(Nc3ccc(Br)cc3F)c(C(=O)NOCCO)cc21 | 1.12 | 
23 | CC(=O)O[C@H]1C(=O)[C@@]2(C)[C@H]([C@H](OC(=O)c3ccccc3)[C@]3(O)C[C@H](OC(=O)[C@H](O)[C@@H](NC(=O)c4ccccc4)c4ccccc4)C(C)=C1C3(C)C)[C@]1(OC(C)=O)CO[C@@H]1C[C@@H]2O | 0.465 | 
24 | COc1cccc2c1C(=O)c1c(O)c3c(c(O)c1C2=O)C[C@@](O)(C(=O)CO)C[C@@H]3O[C@H]1C[C@H](N)[C@@H](O)[C@H](C)O1 | 0.0251 | 
25 | CCCN(CCC)CCc1cccc2c1CC(=O)N2 | 1.48 | 
26 | O[C@H]1[C@H](O)[C@@H](O)[C@H](O)[C@@H](O)[C@H]1O | 1.51 | 
27 | COc1ccc2cc([C@H](C)C(=O)O)ccc2c1 | 0.946 | 
28 | C[C@]12CCC(=O)C=C1[C@@H]1C[C@@H]1[C@H]1[C@@H]3[C@@H]4C[C@@H]4[C@@]4(CCC(=O)O4)[C@@]3(C)CC[C@@H]12 | 1.08 | 
29 | Cc1ncc([N+](=O)[O-])n1CC(C)O (centres undefined) | 1.25 | 
30 | COC(=O)NC(C(=O)N1CCCC1c1ncc(-c2ccc(-c3ccc(-c4cnc(C5CCCN5C(=O)C(NC(=O)OC)C(C)C)[nH]4)cc3)cc2)[nH]1)C(C)C (centres undefined) | 1.09 | 
31 | Cc1ccc(-n2nc(C(C)(C)C)cc2NC(=O)NCc2cc(F)ccc2Oc2ccc3c(cnn3CCO)c2)cc1 | 1.36 | 
32 | O=c1n(CCCN2CCN(c3cccc(Cl)c3)CC2)nc2ccccn12 |  | 0.855
33 | O=C(O)c1cc(=O)[nH]c(=O)[nH]1 | 1.2 | 
34 | CC1(C)S[C@@H]2[C@H](NC(=O)[C@H](N)c3ccccc3)C(=O)N2[C@H]1C(=O)O | 1.02 and 1.06 | 
35 | C=C[C@H]1CN2CC[C@H]1C[C@H]2[C@H](O)c1ccnc2ccc(OC)cc12 | 1.13 | 
36 | Nc1c(CC(=O)O)cccc1C(=O)c1ccc(Br)cc1 | 0.883 | 
37 | CC(C)(C)c1nc(-c2cccc(NS(=O)(=O)c3c(F)cccc3F)c2F)c(-c2ccnc(N)n2)s1 | 0.527 | 
38 | C[C@H]1O[C@@H](n2cc(F)c(=O)[nH]c2=O)[C@H](O)[C@@H]1O | 1.07 | 
39 | COc1c(C)c2c(c(O)c1C/C=C(\C)CCC(=O)O)C(=O)OC2 | 1.29 | 
40 | O=C(NCCN1CCOCC1)c1ccc(Cl)cc1 | 0.924 | 
41 | C[C@H](Cc1cc2c(c(C(N)=O)c1)N(CCCO)CC2)NCCOc1ccccc1OCC(F)(F)F | 0.979 | 
42 | CNCCCC12CCC(c3ccccc31)c1ccccc12 | 1.2 | 

Row | Structure (SMILES) | relative cell density (vehicle: DMSO) | relative cell density (vehicle: Water)
43 | CC[C@H]1OC(=O)C[C@@H](O)[C@H](C)[C@@H](O[C@@H]2O[C@H](C)[C@@H](O)[C@H](N(C)C)[C@H]2O)[C@@H](CCN2C[C@H](C)C[C@H](C)C2)C[C@@H](C)C(=O)/C=C/C(C)=C/[C@@H]1CO[C@@H]1O[C@H](C)[C@@H](O)[C@@H](OC)[C@H]1OC | 1.01 | 
44 | CO/N=C(\C(=O)N[C@@H]1C(=O)N2C(C(=O)[O-])=C(C[N+]3(C)CCCC3)CS[C@H]12)c1csc(N)n1 | 0.515 | 
45 | OC(c1cc(C(F)(F)F)nc2c(C(F)(F)F)cccc12)C1CCCCN1 (centres undefined) | 0.979 | 
46 | CCCCCC(=O)O[C@]1(C(C)=O)CC[C@H]2[C@@H]3CCC4=CC(=O)CC[C@]4(C)[C@H]3CC[C@@]21C | 1.34 | 
47 | Cc1cc(C)cc(OCC2CNC(=O)O2)c1 (centres undefined) | 1.19 | 
48 | CC(=O)O[C@H]1C[C@@H]2CC[C@@H]3[C@H](CC[C@@]4(C)[C@H]3C[C@H]([N+]3(C)CCCCC3)[C@@H]4OC(C)=O)[C@@]2(C)C[C@@H]1N1CCCCC1 | 1.02 | 
49 | C[C@@H](O)[C@H]1C(=O)N2C(C(=O)O)=C(S[C@@H]3CN[C@H](C(=O)N(C)C)C3)[C@H](C)[C@H]12 | 1.21 | 
50 | C=C1CCN([C@H](C)[C@](O)(Cn2cncn2)c2ccc(F)cc2F)CC1 | 1.05 | 
51 | CCN(CC)C(=O)/C(C#N)=C/c1cc(O)c(O)c([N+](=O)[O-])c1 | 1.43 | 
52 | C[C@@H]1O[C@@H](OC[C@H]2O[C@@H](Oc3c(-c4ccc(OCCO)c(OCCO)c4)oc4cc(OCCO)cc(O)c4c3=O)[C@H](O)[C@@H](O)[C@@H]2O)[C@H](O)[C@H](O)[C@H]1O | 1.35 | 
53 | C[C@]12C=CC(=O)C=C1CC[C@H]1[C@@H]3C[C@@H](O)[C@](O)(C(=O)CO)[C@@]3(C)C[C@H](O)[C@@]12F | 1.12 | 
54 | CC1(C)O[C@@H]2C[C@H]3[C@@H]4CCC5=CC(=O)CC[C@]5(C)[C@@]4(F)[C@@H](O)C[C@]3(C)[C@]2(C(=O)CCl)O1 | 1.35 | 
55 | C[C@@H](c1nc(-c2ccc(C#N)cc2)cs1)[C@](O)(Cn1cncn1)c1cc(F)ccc1F | 0.839 | 
56 | CC[C@H](C)C(=O)O[C@H]1C[C@@H](C)C=C2C=C[C@H](C)[C@H](CC[C@@H]3C[C@@H](O)CC(=O)O3)[C@H]21 | 0.357 | 
57 | Clc1ccc(C(Cn2ccnc2)OCc2ccc(Sc3ccccc3)cc2)c(Cl)c1 (centres undefined) | 1.09 | 
58 | CCN(CC)CCOC(=O)c1ccc(N)cc1 | 1.36 and 0.895 | 
59 | COc1cc(C2Oc3cc([C@H]4Oc5cc(O)cc(O)c5C(=O)[C@@H]4O)ccc3OC2CO)ccc1O (some centres undefined) | 1.21 | 
60 | CN(C)CCn1nnnc1SCC1=C(C(=O)O)N2C(=O)[C@@H](NC(=O)Cc3csc(N)n3)[C@H]2SC1 | 1.09 | 
61 | CC(=O)O[C@H]1C[C@@]2(C)[C@@H](C[C@@H](O)[C@H]3[C@@]4(C)CC[C@@H](O)[C@@H](C)[C@@H]4CC[C@@]32C)/C1=C(\CCC=C(C)C)C(=O)O | 1.26 | 
62 | C[C@]1(c2nc3c(C(N)=O)cccc3[nH]2)CCCN1 | 0.91 | 
63 | CC(=O)N[C@@H](CS)C(=O)O | 0.939 | 

Row | Structure (SMILES) | relative cell density (vehicle: DMSO) | relative cell density (vehicle: Water)
64 | Cc1ccnc(NS(=O)(=O)c2ccc(N)cc2)n1 | 1.07 | 
65 | CCC[S+]([O-])c1ccc2[nH]c(NC(=O)OC)nc2c1 (centres undefined) | 0.982 | 
66 | NC(=O)OCC(COC(N)=O)c1ccccc1 | 0.862 | 
67 | COc1ccc(C[C@H](N)C(=O)N[C@H]2[C@@H](O)[C@H](n3cnc4c(N(C)C)ncnc43)O[C@@H]2CO)cc1 | 1.22 | 
68 | NCCCC(O)(P(=O)(O)O)P(=O)(O)O |  | 0.954
69 | CNC[C@H](O)[C@@H](O)[C@H](O)[C@H](O)CO | 1.29 | 
70 | COC(=O)N[C@H](C(=O)N[C@@H](Cc1ccccc1)[C@@H](O)CN(Cc1ccc(-c2ccccn2)cc1)NC(=O)[C@@H](NC(=O)OC)C(C)(C)C)C(C)(C)C | 1.38 and 1.4 | 
71 | N.N.O=C([O-])C[O-].[Pt+2] |  | 0.541
72 | Cn1cc(C(=O)[C@@H]2CCc3[nH]cnc3C2)c2ccccc21 | 0.94 | 
73 | C[C@H](Cn1cnc2c(N)ncnc21)OCP(=O)(O)O | 1.02 | 
74 | CCCCNc1cc(C(=O)O)cc(S(N)(=O)=O)c1Oc1ccccc1 | 0.943 | 
75 | O=c1ccn([C@@H]2O[C@H](CO)[C@@H](O)[C@H]2O)c(=O)[nH]1 | 1.14 | 
76 | CC(C)(C)c1ccc(C(=O)CCCN2CCC(OC(c3ccccc3)c3ccccc3)CC2)cc1 |  | 0.468
77 | CC(C)n1c(/C=C/C(O)CC(O)CC(=O)O)c(-c2ccc(F)cc2)c2ccccc21 (centres undefined) | 0.421 | 
78 | CC1(C)S[C@@H]2[C@H](NC(=O)C(C(=O)O)c3ccccc3)C(=O)N2[C@H]1C(=O)O (some centres undefined) | 0.991 | 
79 | CC(=O)[C@@]1(O)CC[C@H]2[C@@H]3C[C@H](C)C4=CC(=O)CC[C@]4(C)[C@H]3CC[C@@]21C | 0.98 | 
80 | Cc1ccccc1OCC(O)CO (centres undefined) | 1.31 | 
81 | O=C1CN(/N=C/c2ccc([N+](=O)[O-])o2)C(=O)N1 | 1.09 | 
82 | CC(C)(C)C(=O)C(Oc1ccc(Cl)cc1)n1ccnc1 (centres undefined) | 0.988 | 
83 | CN[C@@H]1[C@@H](O)[C@@H](O[C@@H]2[C@@H](O)[C@H](O[C@H]3OC(CN)=CC[C@H]3N)[C@@H](N)C[C@H]2N)OC[C@]1(C)O |  | 0.587
84 | Cc1cc(NS(=O)(=O)c2ccc(N)cc2)no1 | 1.35 and 1.42 | 
